Laboratory results from ChEMBL document CHEMBL1129436, “Novel peptidyl alpha-keto amide inhibitors of calpains and other cysteine proteases” (J Med Chem, 1996).

Organism: Rattus norvegicus
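Note: measured as membrane permeability of platelets.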

Question: For CCC(NC(=O)C(CC(C)C)NC(=O)C(c1ccccc1)c1ccccc1)C(=O)C(=O)NCCCN1CCOCC1 (stereo unspecified), which IC is on record?
Answer: 82 µM
